Results deposited as PubChem BioAssay AID504744 (Drosophila RNAi Screening Center, 2011).
Aim: 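Identify dsRNAs that increase or decrease phospho-dAkt after insulin treatment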 (primary screen). System: Drosophila Kc167 cells. Reagent: long dsRNA against Drosophila genes, 250 ng dsRNA per well of a 384-well plate. Duration: 3 days of knock-down, then overnight serum-free starvation before stimulation. Challenge: bovine insulin at 387 nM for 10 minutes after 12 h without serum. Measured: 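Per-well phospho-dAkt level from an in-cell fluorescent antibody stain, divided by a DNA-dye signal; log2 residuals turned into z-scores that take cell number into account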. Rule for the call: 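Hit in the insulin screen when the two-replicate mean z-score is more extreme than plus or minus 2.5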.
In all, the deposit lists about 23,000 reagents; below is an unselected part of those that have a named target and a result. Over the whole deposit, 98 (0.43%) got an active call. 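Only hit calls are given; the phospho-dAkt signals, z-scores and hit direction were not deposited.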 Names joined by + are all predicted targets of the reagent.

| gene | DRSC id | Outcome |
| --- | --- | --- |
| mTor | DRSC02811 | active |
| SC35 | DRSC02502 | inactive |
| SC35 | DRSC03425 | inactive |
| CG5001 | DRSC00673 | inactive |
| CG13299 | DRSC09973 | inactive |
| PIG-T | DRSC17774 | active |
| CG14244 | DRSC14739 | inactive |
| CheB38a | DRSC03205 | inactive |
| Plzf | DRSC02994 | inactive |
| Cyp12a5 | DRSC16621 | inactive |
| Acp53C14c | DRSC05626 | inactive |
| CG11178 | DRSC19396 | inactive |
| Pi4KIIalpha | DRSC12322 | inactive |
| Pi4KIIalpha | DRSC12323 | inactive |
| Pfdn5 | DRSC16183 | inactive |
| Act57B | DRSC04042 | inactive |
| lectin-21Ca | DRSC00541 | inactive |
| CG3847 | DRSC17444 | inactive |
| CG3847 | DRSC18327 | inactive |
| CG4962 | DRSC10464 | inactive |
| dtn | DRSC17939 | inactive |
| Mf | DRSC16120 | inactive |
| Ocrl | DRSC18576 | inactive |
| phol | DRSC10367 | inactive |
| CG2321 | DRSC15439 | inactive |
| robo2 | DRSC00377 | inactive |
| robo2 | DRSC00378 | inactive |
| robo2 | DRSC00686 | inactive |
| robo2 | DRSC00691 | inactive |
| CG42404 | DRSC15558 | inactive |
| Smox | DRSC18716 | inactive |
| Mpp6 | DRSC03169 | inactive |
| CG12729 | DRSC17884 | inactive |
| CG12581 | DRSC12206 | inactive |
| CG12581 | DRSC12207 | inactive |
| CG16815 | DRSC02521 | inactive |
| Sox21b | DRSC10025 | inactive |
| Sox21b | DRSC10634 | inactive |
| Sox21b | DRSC22788 | inactive |
| CG8508 | DRSC16436 | inactive |
| CtsL4 | DRSC02849 | inactive |
| TwdlB | DRSC16050 | inactive |
| Syx16 | DRSC20507 | inactive |
| CG14573 | DRSC11734 | inactive |
| Dus1 | DRSC00623 | inactive |
| pasi1 | DRSC16299 | inactive |
| pasi1 | DRSC22385 | inactive |
| CG13066 | DRSC09949 | inactive |
| CG14505 | DRSC06476 | inactive |
| SmD2 | DRSC12536 | inactive |
| CG9215 | DRSC20171 | inactive |
| Zip99C | DRSC16320 | inactive |
| Shawl | DRSC02209 | inactive |
| Shawl | DRSC02748 | inactive |
| CG42663 | DRSC06158 | inactive |
| CG42663 | DRSC06404 | inactive |
| Snx17 | DRSC02884 | inactive |
| osk | DRSC17023 | inactive |
| CG34289 | DRSC13625 | inactive |
| Acp65Aa | DRSC09663 | inactive |
| CG8372 | DRSC03086 | inactive |
| CG12057 | DRSC17797 | inactive |
| CG31741 | DRSC02887 | inactive |
| Ppm1 | DRSC08260 | inactive |
| Takl2 | DRSC15650 | inactive |
| Twdlalpha | DRSC19914 | inactive |
| bnk | DRSC16912 | inactive |
| CG34223 | DRSC05268 | inactive |
| CG15136 | DRSC02436 | inactive |
| Vha100-5 | DRSC02175 | inactive |
| wrm1 | DRSC11007 | inactive |
| ovm + CG31975 | DRSC22146 | inactive |
| wash | DRSC06302 | inactive |
| CG31777 | DRSC00201 | inactive |
| Ntan1 | DRSC07546 | inactive |
| CR15821 | DRSC08481 | inactive |
| ProRS-m | DRSC08261 | inactive |
| CG9822 | DRSC04568 | inactive |
| CG13131 | DRSC02227 | inactive |
| CG43775 | DRSC04206 | inactive |
| Had1 | DRSC20216 | inactive |
| CG33919 | DRSC04940 | inactive |
| Snx16 | DRSC06984 | inactive |
| CG10005 | DRSC14172 | inactive |
| obst-E | DRSC02128 | inactive |
| bcd | DRSC12624 | inactive |
| CG33272 | DRSC09116 | inactive |
| CG14072 | DRSC02375 | inactive |
| Rab30 | DRSC03137 | inactive |
| ihog | DRSC03157 | inactive |
| NHP2 | DRSC11229 | inactive |

Copied from the entries so far (26 entries):
| gene | DRSC id | Outcome |
| --- | --- | --- |
| CG14573 | DRSC11734 | inactive |
| Dus1 | DRSC00623 | inactive |
| pasi1 | DRSC16299 | inactive |
| pasi1 | DRSC22385 | inactive |
| CG13066 | DRSC09949 | inactive |
| CG14505 | DRSC06476 | inactive |
| SmD2 | DRSC12536 | inactive |
| CG9215 | DRSC20171 | inactive |
| Zip99C | DRSC16320 | inactive |
| Shawl | DRSC02209 | inactive |
| Shawl | DRSC02748 | inactive |
| CG42663 | DRSC06158 | inactive |
| CG42663 | DRSC06404 | inactive |
| Snx17 | DRSC02884 | inactive |
| osk | DRSC17023 | inactive |
| CG34289 | DRSC13625 | inactive |
| Acp65Aa | DRSC09663 | inactive |
| CG8372 | DRSC03086 | inactive |
| CG12057 | DRSC17797 | inactive |
| CG31741 | DRSC02887 | inactive |
| Ppm1 | DRSC08260 | inactive |
| Takl2 | DRSC15650 | inactive |
| Twdlalpha | DRSC19914 | inactive |
| bnk | DRSC16912 | inactive |
| CG34223 | DRSC05268 | inactive |
| CG15136 | DRSC02436 | inactive |

The results go on.
| gene | DRSC id | Outcome |
| --- | --- | --- |
| CG11588 | DRSC09145 | inactive |
| CG11588 | DRSC09846 | inactive |
| Pp1-Y2 | DRSC21608 | inactive |
| Kif19A | DRSC16576 | inactive |
| CG42471 | DRSC01210 | inactive |
| CG13559 | DRSC04197 | inactive |
| Cda4 | DRSC20623 | inactive |
| Cda4 | DRSC20641 | inactive |
| Cda4 | DRSC20642 | inactive |
| lectin-21Cb | DRSC00355 | inactive |
| c12.1 | DRSC18750 | inactive |
| CG5561 | DRSC00688 | inactive |
| CG11498 | DRSC14315 | inactive |
| CG31221 | DRSC14335 | inactive |
| CG31221 | DRSC16217 | inactive |
| Tsp42Ep | DRSC06871 | inactive |
| Jhbp5 | DRSC14240 | inactive |
| Gnf1 | DRSC12351 | inactive |
| Dpy-30L1 | DRSC02959 | inactive |
| CG11889 + CG11891 | DRSC14426 | inactive |
| CG11889 + CG11891 | DRSC14427 | inactive |
| BOD1 | DRSC15824 | inactive |
| CG15625 | DRSC00460 | inactive |
| dgt2 | DRSC02548 | inactive |
| Obp47a | DRSC06255 | inactive |
| CG3281 | DRSC15470 | inactive |
| CG32075 | DRSC10622 | inactive |
| CG4631 | DRSC02766 | inactive |
| CG4631 | DRSC22194 | inactive |
| Sgsh | DRSC14771 | inactive |
| CG12517 | DRSC02173 | inactive |
| CG44098 | DRSC12214 | inactive |
| CG44098 | DRSC12327 | inactive |
| tap | DRSC11402 | inactive |
| Taf9 | DRSC20326 | inactive |
| alpha-Est3 | DRSC12615 | inactive |
| CG17191 | DRSC15185 | inactive |
| lncRNA:CR30009 | DRSC22952 | inactive |
| sunn | DRSC21659 | inactive |
| nero | DRSC15432 | inactive |
| CG14190 | DRSC19545 | inactive |
| Trf | DRSC03462 | inactive |
| CG4570 | DRSC15602 | inactive |
| CG15429 | DRSC00444 | inactive |
| MED20 | DRSC03463 | inactive |
| cd | DRSC16157 | inactive |
| gdl-ORF39 + gdl | DRSC11350 | inactive |
| Bcat | DRSC19756 | inactive |
| wds | DRSC18852 | inactive |
| Cdc14 | DRSC03013 | inactive |
| Vps4 | DRSC19338 | inactive |
| CG32726 | DRSC17521 | inactive |
| kl-2 | DRSC21136 | inactive |
| CG34300 | DRSC13977 | inactive |
| CG4612 | DRSC04478 | inactive |
| MED27 | DRSC12205 | inactive |
| Dmtn | DRSC12513 | inactive |
| CG12723 | DRSC19499 | inactive |
| loaf | DRSC09130 | inactive |
| eEF2 | DRSC03737 | inactive |
| PGRP-SB1 | DRSC11090 | inactive |
| CG4892 | DRSC01937 | inactive |
| ome | DRSC09322 | inactive |
| ome | DRSC10282 | inactive |
| ome | DRSC11380 | inactive |
| CG31709 | DRSC01081 | inactive |
